These are yes or no findings as the source states them, for the method shown. Binding seen in cells or lysates may run through a third protein. These calls come from enrichment with a bait or labelling near it, and not all partners need be listed.
Molecular target: T1, Endogenous CREPT (cell line not stated) (UniProt Q9NQG5)
T1 sequence: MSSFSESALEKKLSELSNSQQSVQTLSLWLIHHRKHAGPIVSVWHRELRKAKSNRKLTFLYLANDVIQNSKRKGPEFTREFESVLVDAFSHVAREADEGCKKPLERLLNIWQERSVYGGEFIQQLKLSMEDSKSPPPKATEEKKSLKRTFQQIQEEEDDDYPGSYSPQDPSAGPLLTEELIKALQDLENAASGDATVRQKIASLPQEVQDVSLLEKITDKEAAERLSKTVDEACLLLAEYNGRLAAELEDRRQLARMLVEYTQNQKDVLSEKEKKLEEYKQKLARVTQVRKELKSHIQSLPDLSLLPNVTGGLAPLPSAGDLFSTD
Test: affinity purification with mass spectrometry; immunoprecipitation with the anti-CREPT antibody 3E10, IgG as control; SDS-PAGE, Coomassie blue, bands cut out and identified by mass spectrometry; cells not named

Amino acid sequences for entries named in this document (tags omitted).
UniProt Q96GD4: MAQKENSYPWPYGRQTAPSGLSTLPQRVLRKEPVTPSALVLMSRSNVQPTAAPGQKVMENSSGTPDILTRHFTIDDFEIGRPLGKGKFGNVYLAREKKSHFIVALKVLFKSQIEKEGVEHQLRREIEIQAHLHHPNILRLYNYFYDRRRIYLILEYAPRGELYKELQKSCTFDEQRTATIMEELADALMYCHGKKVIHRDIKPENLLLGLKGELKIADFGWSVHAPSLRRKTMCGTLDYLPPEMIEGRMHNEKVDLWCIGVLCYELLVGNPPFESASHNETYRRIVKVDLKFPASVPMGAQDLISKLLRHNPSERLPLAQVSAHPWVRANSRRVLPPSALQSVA

binding: binds
Substance: Endogenous Aurora B (cell line not stated) (from UniProt Q96GD4 1-344) (enzyme)

Source: article PMC6281615
